Here are results for one substance from paper PMC5724004.

No constants are given. Whether binding was seen depends on the method and setting. Binding seen in cells or lysates may run through a third protein. Binding can be weak; no strength is given.

For the assay, the target named is T1, breakpoint cluster region (BCR) (rat (endogenous in cultured hippocampal and cortical neurons)) (UniProt F1LXF1).
T1 sequence: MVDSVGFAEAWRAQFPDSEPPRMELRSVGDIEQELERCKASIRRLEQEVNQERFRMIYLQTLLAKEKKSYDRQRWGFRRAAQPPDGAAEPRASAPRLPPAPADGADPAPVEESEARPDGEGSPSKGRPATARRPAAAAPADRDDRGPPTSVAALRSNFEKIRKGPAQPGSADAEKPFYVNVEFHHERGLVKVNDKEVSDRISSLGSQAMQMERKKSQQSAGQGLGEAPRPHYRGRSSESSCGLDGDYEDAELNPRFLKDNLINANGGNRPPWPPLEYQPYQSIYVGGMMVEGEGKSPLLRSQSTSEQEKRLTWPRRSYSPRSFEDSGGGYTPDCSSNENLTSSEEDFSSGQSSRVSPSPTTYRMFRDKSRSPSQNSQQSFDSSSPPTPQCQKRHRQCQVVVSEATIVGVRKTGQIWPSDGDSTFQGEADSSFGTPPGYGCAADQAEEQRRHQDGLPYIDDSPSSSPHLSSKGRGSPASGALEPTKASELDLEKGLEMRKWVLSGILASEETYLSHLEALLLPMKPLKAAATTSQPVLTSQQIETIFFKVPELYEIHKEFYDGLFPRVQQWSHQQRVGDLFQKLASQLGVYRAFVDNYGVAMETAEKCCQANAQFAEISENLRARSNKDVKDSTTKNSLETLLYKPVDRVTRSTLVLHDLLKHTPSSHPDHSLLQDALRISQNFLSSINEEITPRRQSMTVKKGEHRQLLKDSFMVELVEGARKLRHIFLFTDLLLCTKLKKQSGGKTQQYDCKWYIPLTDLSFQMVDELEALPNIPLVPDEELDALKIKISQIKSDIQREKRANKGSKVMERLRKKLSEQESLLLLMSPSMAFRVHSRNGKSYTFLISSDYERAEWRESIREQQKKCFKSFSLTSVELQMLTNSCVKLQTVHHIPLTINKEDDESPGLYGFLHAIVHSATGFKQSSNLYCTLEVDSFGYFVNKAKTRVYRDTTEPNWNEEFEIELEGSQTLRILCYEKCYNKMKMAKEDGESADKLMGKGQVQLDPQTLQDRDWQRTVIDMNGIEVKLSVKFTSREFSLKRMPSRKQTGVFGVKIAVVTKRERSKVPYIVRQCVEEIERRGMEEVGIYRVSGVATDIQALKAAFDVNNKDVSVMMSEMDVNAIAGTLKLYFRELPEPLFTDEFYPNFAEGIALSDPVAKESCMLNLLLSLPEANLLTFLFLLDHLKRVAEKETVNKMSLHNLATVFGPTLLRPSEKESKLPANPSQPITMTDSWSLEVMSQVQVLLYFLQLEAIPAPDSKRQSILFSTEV
Nature of the assay: co-IP; lysate of cultured rat hippocampal or cortical neurons (50 mM Tris pH 7.5, 1% Triton X-100, 150 mM NaCl, 1 mM EDTA), 2 μg antibody 2 h at 4 °C, protein G beads, Western blot; control conditions or OGD. Background: A western blot detects proteins with antibodies after separation by electrophoresis.

Turning to Tiam1, the binding entry is reported as “binds”.
